Results are given in words; binding and its absence hold for the method and conditions named. Binding seen in cells or lysates may run through a third protein. Some binding calls cover weakened binding; strength is not graded here.
Tests used:
[1] = target: HA-tagged FAM84B/LRATD2 (FAM84B-HA) (UniProt Q96KN1); assay: co-IP; HEK293T cells expressing FAM84B-HA treated in 2 mM DSP cross-linker; lysates incubated with beads conjugated with HA antibodies; Western blot
[2] = target: GST-tagged human Sar1A with its N-terminal amphipathic helix removed (GST-Sar1A^Δ1–17) (human) (UniProt Q9NR31); assay: pull-down; GST-Sar1A^Δ1–17 loaded with GMPPNP, immobilised on glutathione beads, incubated with rat liver cytosol; bound proteins eluted with EDTA; immunoblot; only the target purified
[3] = target: SURF4-HA (UniProt O15260); assay: co-IP; co-immunoprecipitation with SURF4-HA in the presence of a cross-linker
[4] = target: FLAG-tagged PRRC1 (PRRC1-FLAG) (UniProt Q96M27); assay: co-IP; M2 agarose beads incubated with lysates of HEK293T cells expressing PRRC1-FLAG; eluted with 3× FLAG peptides; Western blot

By UniProt entry, the sequences of proteins in these tests, tags left out. Where a name states a change or a piece, a line headed by the entry shows the natural chain unless it says otherwise. Chains listed by the source or under a name are the forms on record and can include a tag or linker. Residues count along the entry.
UniProt Q96KN1: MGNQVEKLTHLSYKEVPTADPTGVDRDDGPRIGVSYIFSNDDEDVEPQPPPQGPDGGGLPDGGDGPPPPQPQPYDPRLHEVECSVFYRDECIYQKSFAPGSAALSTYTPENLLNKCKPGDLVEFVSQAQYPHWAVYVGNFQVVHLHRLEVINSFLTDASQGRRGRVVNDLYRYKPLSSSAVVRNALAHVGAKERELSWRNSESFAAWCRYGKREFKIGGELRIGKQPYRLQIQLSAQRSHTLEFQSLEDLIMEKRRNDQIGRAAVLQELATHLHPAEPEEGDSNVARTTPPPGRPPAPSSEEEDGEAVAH
UniProt Q9NR31: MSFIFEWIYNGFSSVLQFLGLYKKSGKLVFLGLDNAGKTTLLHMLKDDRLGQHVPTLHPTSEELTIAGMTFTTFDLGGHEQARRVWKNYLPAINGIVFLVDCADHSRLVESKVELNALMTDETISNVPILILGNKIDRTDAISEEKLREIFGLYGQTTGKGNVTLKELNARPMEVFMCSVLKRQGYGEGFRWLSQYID
GST-tagged human Sar1A with its N-terminal amphipathic helix removed (GST-Sar1A^Δ1–17): residues 18-198 of Q9NR31
UniProt O15260: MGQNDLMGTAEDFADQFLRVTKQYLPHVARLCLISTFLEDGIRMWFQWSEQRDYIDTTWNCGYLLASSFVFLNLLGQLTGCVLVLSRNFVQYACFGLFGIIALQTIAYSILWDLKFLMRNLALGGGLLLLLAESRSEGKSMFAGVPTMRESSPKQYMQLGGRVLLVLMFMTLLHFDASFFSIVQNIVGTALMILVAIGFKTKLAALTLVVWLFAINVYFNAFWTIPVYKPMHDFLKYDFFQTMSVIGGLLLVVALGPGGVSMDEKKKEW
UniProt Q96M27: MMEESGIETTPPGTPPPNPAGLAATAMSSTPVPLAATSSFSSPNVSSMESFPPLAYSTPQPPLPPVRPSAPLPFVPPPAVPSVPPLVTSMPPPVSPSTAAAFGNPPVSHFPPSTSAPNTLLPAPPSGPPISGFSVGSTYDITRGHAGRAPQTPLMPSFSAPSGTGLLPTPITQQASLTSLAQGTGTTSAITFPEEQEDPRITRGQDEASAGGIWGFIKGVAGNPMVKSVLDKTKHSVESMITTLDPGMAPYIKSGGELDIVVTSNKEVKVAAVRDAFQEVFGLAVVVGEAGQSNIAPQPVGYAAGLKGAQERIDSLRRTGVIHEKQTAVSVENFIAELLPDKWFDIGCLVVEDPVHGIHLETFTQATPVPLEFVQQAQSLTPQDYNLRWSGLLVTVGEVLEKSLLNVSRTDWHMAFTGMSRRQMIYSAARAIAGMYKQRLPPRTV
UniProt Q3T1I4: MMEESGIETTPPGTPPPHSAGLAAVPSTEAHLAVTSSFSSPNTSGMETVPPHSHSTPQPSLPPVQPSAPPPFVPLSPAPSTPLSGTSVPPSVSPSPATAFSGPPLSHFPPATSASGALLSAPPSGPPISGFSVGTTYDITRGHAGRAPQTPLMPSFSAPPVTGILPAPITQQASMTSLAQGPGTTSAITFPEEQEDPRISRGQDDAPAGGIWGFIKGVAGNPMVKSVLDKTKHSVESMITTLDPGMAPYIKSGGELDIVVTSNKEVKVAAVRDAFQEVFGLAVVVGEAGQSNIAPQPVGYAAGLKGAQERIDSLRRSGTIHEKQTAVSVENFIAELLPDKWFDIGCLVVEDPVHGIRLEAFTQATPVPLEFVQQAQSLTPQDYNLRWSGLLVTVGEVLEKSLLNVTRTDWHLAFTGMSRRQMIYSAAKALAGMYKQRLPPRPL
UniProt O43747: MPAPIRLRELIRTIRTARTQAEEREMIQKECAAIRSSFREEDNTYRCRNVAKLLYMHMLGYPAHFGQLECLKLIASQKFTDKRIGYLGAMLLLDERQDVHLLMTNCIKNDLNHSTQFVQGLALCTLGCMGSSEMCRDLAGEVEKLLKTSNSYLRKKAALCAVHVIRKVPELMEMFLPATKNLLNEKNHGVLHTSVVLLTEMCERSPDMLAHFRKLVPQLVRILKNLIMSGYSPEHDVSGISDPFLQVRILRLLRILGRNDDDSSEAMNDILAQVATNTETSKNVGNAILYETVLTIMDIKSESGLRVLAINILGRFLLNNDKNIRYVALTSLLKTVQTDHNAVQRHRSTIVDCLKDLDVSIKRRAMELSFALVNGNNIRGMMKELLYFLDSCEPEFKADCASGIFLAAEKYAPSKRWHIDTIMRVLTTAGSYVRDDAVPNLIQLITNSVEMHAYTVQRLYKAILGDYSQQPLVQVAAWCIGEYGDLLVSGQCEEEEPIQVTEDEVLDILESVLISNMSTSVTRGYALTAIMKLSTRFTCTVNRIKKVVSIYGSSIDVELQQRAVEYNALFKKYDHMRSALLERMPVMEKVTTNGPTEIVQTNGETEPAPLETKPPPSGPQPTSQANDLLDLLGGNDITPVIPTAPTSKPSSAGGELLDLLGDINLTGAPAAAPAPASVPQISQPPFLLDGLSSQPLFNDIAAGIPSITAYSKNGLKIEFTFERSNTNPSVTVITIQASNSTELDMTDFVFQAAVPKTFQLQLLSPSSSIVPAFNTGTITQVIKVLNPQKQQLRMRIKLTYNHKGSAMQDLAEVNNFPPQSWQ

| Molecule | binding [1] | binding [3] | also measured |
| --- | --- | --- | --- |
| PRRC1 of rat liver cytosol (from UniProt Q3T1I4 1-443) | – | – | binding [2]: no binding |
| Sec31A (outer COPII subunit), HEK293T (protein, UniProt O94979 1-1220) MKLKEVDRTAMQAWSPAQNHPIYLATGTSAQQLDATFSTNASLEIFELDLSDPSLDMKSCATFSSSHRYHKLIWGPYKMDSKGDVSGVLIAGGENGNIILYDPSKIIAGDKEVVIAQNDKHTGPVRALDVNIFQTNLVASGANESEIYIWDLNNFATPMTPGAKTQPPEDISCIAWNRQVQHILASASPSGRATVWDLRKNEPIIKVSDHSNRMHCSGLAWHPDVATQMVLASEDDRLPVIQMWDLRFASSPLRVLENHARGILAIAWSMADPELLLSCGKDAKILCSNPNTGEVLYELPTNTQWCFDIQWCPRNPAVLSAASFDGRISVYSIMGGSTDGLRQKQVDKLSSSFGNLDPFGTGQPLPPLQIPQQTAQHSIVLPLKKPPKWIRRPVGASFSFGGKLVTFENVRMPSHQGAEQQQQQHHVFISQVVTEKEFLSRSDQLQQAVQSQGFINYCQKKIDASQTEFEKNVWSFLKVNFEDDSRGKYLELLGYRKEDLGKKIALALNKVDGANVALKDSDQVAQSDGEESPAAEEQLLGEHIKEEKEESEFLPSSGGTFNISVSGDIDGLITQALLTGNFESAVDLCLHDNRMADAIILAIAGGQELLARTQKKYFAKSQSKITRLITAVVMKNWKEIVESCDLKNWREALAAVLTYAKPDEFSALCDLLGTRLENEGDSLLQTQACLCYICAGNVEKLVACWTKAQDGSHPLSLQDLIEKVVILRKAVQLTQAMDTSTVGVLLAAKMSQYANLLAAQGSIAAALAFLPDNTNQPNIMQLRDRLCRAQGEPVAGHESPKIPYEKQQLPKGRPGPVAGHHQMPRVQTQQYYPHGENPPPPGFIMHGNVNPNAAGQLPTSPGHMHTQVPPYPQPQPYQPAQPYPFGTGGSAMYRPQQPVAPPTSNAYPNTPYISSASSYTGQSQLYAAQHQASSPTSSPATSFPPPPSSGASFQHGGPGAPPSSSAYALPPGTTGTLPAASELPASQRTGPQNGWNDPPALNRVPKKKKMPENFMPPVPITSPIMNPLGDPQSQMLQQQPSAPVPLSSQSSFPQPHLPGGQPFHGVQQPLGQTGMPPSFSKPNIEGAPGAPIGNTFQHVQSLPTKKITKKPIPDEHLILKTTFEDLIQRCLSSATDPQTKRKLDDASKRLEFLYDKLREQTLSPTITSGLHNIARSIETRNYSEGLTMHTHIVSTSNFSETSAFMPVLKVVLTQANKLGV | – | – | binding [4]: no binding |
| NUCB2 (protein, UniProt P80303 25-420) VPIDIDKTKVQNIHPVESAKIEPPDTGLYYDEYLKQVIDVLETDKHFREKLQKADIEEIKSGRLSKELDLVSHHVRTKLDELKRQEVGRLRMLIKAKLDSLQDIGMDHQALLKQFDHLNHLNPDKFESTDLDMLIKAATSDLEHYDKTRHEEFKKYEMMKEHERREYLKTLNEEKRKEEESKFEEMKKKHENHPKVNHPGSKDQLKEVWEETDGLDPNDFDPKTFFKLHDVNSDGFLDEQELEALFTKELEKVYDPKNEEDDMVEMEEERLRMREHVMNEVDTNKDRLVTLEEFLKATEKKEFLEPDSWETLDQQQFFTEEELKEYENIIALQENELKKKADELQKQKEELQRQHDQLEAQKLEYHQVIQQMEQKKLQQGIPPSGPAGELKFEPHI | – | binds | – |

Further lines, with some results ahead:

| binding [1] | binding [3] | Molecule | also measured |
| --- | --- | --- | --- |
| binds | – | AP1γ1 (γ-subunit of the adaptor complex 1) (from UniProt O43747 1-822) | – |
| no binding | – | Sar1A, HEK293T (from UniProt Q9NR31 1-198) | – |
| – | binds | NUCB1 (protein, UniProt Q02818 27-461) VPLERGAPNKEETPATESPDTGLYYHRYLQEVIDVLETDGHFREKLQAANAEDIKSGKLSRELDFVSHHVRTKLDELKRQEVSRLRMLLKAKMDAEQDPNVQVDHLNLLKQFEHLDPQNQHTFEARDLELLIQTATRDLAQYDAAHHEEFKRYEMLKEHERRRYLESLGEEQRKEAERKLEEQQRRHREHPKVNVPGSQAQLKEVWEELDGLDPNRFNPKTFFILHDINSDGVLDEQELEALFTKELEKVYDPKNEEDDMREMEEERLRMREHVMKNVDTNQDRLVTLEEFLASTQRKEFGDTGEGWETVEMHPAYTEEELRRFEEELAAREAELNAKAQRLSQETEALGRSQGRLEAQKRELQQAVLHMEQRKQQQQQQQGHKAPAAHPEGQLKFHPDTDDVPVPAPAGDQKEVDTSEKKLLERLPEVEVPQHL | – |

Reference: paper PMC8536394
